Measured values taken from paper PMC8760370, “Combinatorial inhibition of BTK, PI3K-AKT and BRD4-MYC as a strategy for treatment of mantle cell lymphoma” (Molecular Biomedicine, 2022).

Sequences of proteins named here, by UniProt entry; tags and fusion partners are left off. A change or cut given only in a name is not applied to a line headed by its entry.
UniProt P48736, whole entry: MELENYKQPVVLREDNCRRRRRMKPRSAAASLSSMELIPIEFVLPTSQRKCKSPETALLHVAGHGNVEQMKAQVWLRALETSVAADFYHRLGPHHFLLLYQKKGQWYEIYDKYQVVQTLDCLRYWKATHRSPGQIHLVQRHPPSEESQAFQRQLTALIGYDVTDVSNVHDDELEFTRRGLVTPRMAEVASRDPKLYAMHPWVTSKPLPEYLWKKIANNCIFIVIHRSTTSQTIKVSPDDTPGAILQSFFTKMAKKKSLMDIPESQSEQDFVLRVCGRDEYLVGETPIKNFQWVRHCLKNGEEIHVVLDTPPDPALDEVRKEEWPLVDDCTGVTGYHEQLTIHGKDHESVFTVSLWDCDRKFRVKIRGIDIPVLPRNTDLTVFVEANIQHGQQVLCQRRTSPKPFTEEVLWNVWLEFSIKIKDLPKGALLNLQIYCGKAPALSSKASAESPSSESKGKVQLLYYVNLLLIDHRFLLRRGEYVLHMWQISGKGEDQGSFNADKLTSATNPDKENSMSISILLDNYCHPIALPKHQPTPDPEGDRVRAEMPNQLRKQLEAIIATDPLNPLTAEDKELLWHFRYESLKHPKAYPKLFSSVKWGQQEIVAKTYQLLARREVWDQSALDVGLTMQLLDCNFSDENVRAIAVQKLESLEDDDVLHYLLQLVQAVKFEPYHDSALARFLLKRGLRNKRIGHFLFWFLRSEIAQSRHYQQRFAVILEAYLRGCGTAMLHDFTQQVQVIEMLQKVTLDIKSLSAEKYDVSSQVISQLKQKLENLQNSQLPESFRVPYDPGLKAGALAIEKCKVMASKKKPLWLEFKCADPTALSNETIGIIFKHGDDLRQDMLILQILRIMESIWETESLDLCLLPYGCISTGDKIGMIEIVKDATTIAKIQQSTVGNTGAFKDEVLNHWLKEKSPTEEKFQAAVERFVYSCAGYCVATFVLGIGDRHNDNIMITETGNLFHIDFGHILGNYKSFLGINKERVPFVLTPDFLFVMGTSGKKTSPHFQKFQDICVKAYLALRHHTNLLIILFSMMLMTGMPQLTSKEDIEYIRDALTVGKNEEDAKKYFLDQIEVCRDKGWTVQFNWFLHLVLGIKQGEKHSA
UniProt P42336, whole entry: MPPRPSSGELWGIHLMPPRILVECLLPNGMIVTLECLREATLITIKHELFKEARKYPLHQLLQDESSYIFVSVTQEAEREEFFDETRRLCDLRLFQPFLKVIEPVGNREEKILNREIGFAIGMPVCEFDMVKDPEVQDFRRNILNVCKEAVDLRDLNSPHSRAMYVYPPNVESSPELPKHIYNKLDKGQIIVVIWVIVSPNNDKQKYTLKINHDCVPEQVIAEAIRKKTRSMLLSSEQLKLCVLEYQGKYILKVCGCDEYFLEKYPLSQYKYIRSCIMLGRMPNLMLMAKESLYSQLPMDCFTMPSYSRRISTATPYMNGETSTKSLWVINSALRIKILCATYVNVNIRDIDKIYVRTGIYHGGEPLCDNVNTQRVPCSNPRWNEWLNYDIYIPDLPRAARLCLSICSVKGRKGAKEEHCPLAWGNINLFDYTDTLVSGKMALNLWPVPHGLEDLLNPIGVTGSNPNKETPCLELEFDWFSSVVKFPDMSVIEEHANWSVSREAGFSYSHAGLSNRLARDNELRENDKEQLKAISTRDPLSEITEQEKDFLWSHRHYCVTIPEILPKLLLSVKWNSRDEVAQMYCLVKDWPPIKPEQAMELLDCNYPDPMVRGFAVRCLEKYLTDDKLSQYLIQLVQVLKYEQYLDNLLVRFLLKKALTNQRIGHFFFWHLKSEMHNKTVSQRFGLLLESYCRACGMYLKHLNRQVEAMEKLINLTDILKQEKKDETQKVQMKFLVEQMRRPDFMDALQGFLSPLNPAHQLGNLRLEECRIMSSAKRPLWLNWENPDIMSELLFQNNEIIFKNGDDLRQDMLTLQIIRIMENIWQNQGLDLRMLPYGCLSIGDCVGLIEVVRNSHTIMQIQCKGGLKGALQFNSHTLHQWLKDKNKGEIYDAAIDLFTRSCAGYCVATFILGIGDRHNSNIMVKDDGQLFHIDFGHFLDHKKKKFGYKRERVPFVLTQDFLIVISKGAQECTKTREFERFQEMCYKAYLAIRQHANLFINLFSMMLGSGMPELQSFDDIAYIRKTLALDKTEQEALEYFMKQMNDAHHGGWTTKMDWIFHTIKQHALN
UniProt Q06187, whole entry C481S: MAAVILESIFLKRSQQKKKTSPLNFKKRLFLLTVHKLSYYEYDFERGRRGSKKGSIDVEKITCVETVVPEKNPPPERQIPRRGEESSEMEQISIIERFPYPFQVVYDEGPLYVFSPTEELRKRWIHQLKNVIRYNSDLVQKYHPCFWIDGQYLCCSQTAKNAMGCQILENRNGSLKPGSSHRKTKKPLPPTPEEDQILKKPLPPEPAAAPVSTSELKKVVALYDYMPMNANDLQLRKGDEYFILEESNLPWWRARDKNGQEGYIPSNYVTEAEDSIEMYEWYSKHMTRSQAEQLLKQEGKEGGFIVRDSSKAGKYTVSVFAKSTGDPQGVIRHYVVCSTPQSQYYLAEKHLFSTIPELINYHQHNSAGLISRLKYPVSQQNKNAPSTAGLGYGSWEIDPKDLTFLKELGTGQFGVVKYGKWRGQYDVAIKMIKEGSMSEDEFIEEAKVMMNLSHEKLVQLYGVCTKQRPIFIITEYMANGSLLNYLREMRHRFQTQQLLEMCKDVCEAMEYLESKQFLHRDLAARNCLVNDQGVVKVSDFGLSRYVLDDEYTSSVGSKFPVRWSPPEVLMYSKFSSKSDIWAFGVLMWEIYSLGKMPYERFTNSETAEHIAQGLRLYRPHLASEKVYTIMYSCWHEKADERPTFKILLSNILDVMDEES
UniProt Q06187, whole entry: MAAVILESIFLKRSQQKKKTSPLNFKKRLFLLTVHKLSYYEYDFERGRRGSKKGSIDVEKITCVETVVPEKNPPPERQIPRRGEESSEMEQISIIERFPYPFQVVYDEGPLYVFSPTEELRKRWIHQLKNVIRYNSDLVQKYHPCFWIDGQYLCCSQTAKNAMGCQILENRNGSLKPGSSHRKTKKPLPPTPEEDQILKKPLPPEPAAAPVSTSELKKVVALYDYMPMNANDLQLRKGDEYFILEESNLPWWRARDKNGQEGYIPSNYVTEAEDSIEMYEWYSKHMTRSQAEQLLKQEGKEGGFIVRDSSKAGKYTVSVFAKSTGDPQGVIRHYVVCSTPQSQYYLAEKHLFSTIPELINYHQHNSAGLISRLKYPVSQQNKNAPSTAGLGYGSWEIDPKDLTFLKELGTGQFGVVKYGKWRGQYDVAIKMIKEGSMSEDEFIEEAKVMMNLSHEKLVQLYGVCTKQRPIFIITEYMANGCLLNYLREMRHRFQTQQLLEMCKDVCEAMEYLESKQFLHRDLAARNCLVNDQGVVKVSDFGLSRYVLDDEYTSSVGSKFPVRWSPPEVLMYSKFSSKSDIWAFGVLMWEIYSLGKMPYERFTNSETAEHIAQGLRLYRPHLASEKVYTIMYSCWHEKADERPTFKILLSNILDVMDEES
UniProt O00329, whole entry: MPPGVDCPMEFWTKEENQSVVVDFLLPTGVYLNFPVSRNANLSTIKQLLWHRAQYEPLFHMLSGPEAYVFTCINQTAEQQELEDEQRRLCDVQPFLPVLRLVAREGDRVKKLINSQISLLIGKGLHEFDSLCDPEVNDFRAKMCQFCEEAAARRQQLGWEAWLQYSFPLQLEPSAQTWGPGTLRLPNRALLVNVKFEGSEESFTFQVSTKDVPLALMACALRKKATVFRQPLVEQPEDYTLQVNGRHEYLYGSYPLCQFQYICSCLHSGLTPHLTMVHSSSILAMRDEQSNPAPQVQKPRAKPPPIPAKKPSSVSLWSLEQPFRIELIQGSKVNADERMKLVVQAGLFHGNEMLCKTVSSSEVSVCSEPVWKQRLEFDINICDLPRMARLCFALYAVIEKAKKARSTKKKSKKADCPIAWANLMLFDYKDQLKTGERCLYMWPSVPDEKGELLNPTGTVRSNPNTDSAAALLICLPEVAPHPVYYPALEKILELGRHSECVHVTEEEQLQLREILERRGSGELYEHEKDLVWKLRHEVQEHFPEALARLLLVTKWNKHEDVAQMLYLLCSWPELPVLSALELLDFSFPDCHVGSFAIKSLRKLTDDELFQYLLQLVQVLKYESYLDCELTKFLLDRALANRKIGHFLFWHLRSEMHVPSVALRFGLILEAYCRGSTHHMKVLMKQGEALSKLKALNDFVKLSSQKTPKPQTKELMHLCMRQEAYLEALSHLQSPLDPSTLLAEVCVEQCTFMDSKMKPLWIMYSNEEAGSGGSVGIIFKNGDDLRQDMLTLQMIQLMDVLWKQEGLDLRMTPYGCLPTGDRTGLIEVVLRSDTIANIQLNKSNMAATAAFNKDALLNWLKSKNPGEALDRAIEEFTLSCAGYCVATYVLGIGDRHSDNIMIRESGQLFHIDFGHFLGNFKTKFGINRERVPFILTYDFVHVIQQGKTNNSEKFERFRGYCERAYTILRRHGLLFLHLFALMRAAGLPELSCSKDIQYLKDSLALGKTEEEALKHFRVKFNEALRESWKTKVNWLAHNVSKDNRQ
UniProt P27986, whole entry partner: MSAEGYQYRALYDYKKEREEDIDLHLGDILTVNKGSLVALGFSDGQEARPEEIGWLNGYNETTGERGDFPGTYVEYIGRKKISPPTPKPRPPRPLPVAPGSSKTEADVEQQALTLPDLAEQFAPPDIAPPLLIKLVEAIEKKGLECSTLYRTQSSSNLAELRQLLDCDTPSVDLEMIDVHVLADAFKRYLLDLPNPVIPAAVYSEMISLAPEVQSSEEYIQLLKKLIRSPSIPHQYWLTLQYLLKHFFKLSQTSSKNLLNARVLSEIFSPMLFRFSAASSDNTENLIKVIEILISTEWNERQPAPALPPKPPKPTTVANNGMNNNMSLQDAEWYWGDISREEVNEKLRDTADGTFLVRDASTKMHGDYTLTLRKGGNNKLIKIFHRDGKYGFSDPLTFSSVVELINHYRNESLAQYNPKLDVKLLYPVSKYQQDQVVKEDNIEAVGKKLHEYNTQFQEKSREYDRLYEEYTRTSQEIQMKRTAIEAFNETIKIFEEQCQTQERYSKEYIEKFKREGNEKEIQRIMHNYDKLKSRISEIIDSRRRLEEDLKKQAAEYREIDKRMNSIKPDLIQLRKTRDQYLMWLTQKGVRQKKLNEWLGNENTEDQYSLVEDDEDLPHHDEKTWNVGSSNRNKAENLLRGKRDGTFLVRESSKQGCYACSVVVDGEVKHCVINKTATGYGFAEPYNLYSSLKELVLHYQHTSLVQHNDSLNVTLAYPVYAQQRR

Columns and labels:
[1] = system: cMYC and HEXIM1 expression; assay: qRT-PCR of cMYC and HEXIM1, JeKo-1 cells; details: 0.5 μM, 24 hr
[2] = system: HS-5 bone marrow-derived stromal cell line; assay: MTS cytotoxicity assay, HS-5 stromal cells; details: 72 h
Mino BTK C481S cells = assay: Cell viability assay, Mino BTK C481S; details: read-out: IC50, anti-proliferative activity, Mino BTK C481S; 48 h
JeKo-1 cells [3] = assay: Cell cycle analysis, JeKo-1; details: JeKo-1, 1 µM, 24 h
Granta cells = assay: Cell viability assay (alamarBlue / CellTiter-Glo), Granta
PI3Kγ [4] = molecular target: T1, PI3Kγ (Homo sapiens, UniProt P48736); details: read-out: IC50, PI3Kγ; cited from earlier work
JeKo-1 BTK C481S cells = assay: Cell viability assay, JeKo-1 BTK C481S; details: 48 h
PI3Kγ [5] = molecular target: T1, PI3Kγ; assay: Adapta kinase activity assay, PI3Kγ; details: read-out: IC50, PI3Kγ
JeKo-1 cells [6] = assay: Cell viability assay (alamarBlue / CellTiter-Glo), JeKo-1; type: cell-based, human; details: read-out: IC50, anti-proliferative activity, JeKo-1; 48 h
PI3Kα = PI3Kα (Homo sapiens, UniProt P42336); assay: Adapta kinase activity assay, PI3Kα; details: read-out: IC50, PI3Kα
[7] = molecular target: T2, BTK C481S (Ibrutinib-resistant mutant) (Homo sapiens, UniProt Q06187, C481S); assay: Kinase activity assay, BTK C481S; type: biochemical
BTK WT = BTK WT (Homo sapiens, UniProt Q06187); assay: Kinase activity assay, BTK WT; type: biochemical; details: read-out: IC50, BTK WT
[8] = system: BTK/PI3K signaling (pBTK Y223, pAKT S473); assay: Western blot of BTK/PI3K signaling in IgM-stimulated MCL cells; details: 1 h
Mino cells [9] = assay: Cell viability assay (alamarBlue / CellTiter-Glo), Mino; details: read-out: IC50, anti-proliferative activity, Mino; 48 h
Mino cells [10] = assay: Cell cycle analysis, Mino; details: 1 µM, 24 h, increased from 12
PI3Kδ = PI3Kδ (Homo sapiens, UniProt O00329); assay: Adapta kinase activity assay, PI3Kδ; details: read-out: IC50, PI3Kδ
[11] = molecular target: T2, BTK C481S (Ibrutinib-resistant mutant); details: cited from earlier work
[12] = system: healthy donor peripheral blood mononuclear cells (PBMCs); assay: MTS cytotoxicity assay, healthy donor PBMCs; details: 48 h
[13] = system: BTK and AKT phosphorylation; assay: Inhibitor washout assay, Mino cells
[14] = read-out: IC50, drug-resistant C481S mutant of BTK
[15] = Mino cells, 1 h treatment, washes with PBS

IC50 (PI3Kγ [5]): 0.163 µM
IC50 (PI3Kα): 0.015 µM
IC50 ([7]; read-out: IC50, BTK C481S): 9.14 µM
IC50 [7, 14]: 9 µM
IC50 (BTK WT): 0.0065 µM
IC50 (PI3Kδ): 0.004 µM
SMILES: C=CC(=O)N1CCOc2ccc(-c3csc4c(=O)cc(N5CCOCC5)oc34)cc21
expression of HEXIM1 [1]: increase
expression of cMYC [1]: decrease
toxicity to bystander healthy stromal cells (HS-5) [2]: minimally toxic
IC50 (Mino BTK C481S cells): 0.047 µM
cell population in G2 phase (JeKo-1 cells [3]; increasing from 8): 18%
cell population in S phase (JeKo-1 cells [3]; increasing from 49): 65%
anti-proliferative activity in Granta, an Ibrutinib-resistant cell line (Granta cells; Fig. 3e, f): dose dependent anti-proliferative activity
IC50 (Granta cells; read-out: IC50, Granta cells, 48 h): 1.1 µM
IC50 (PI3Kγ [4]): 0.486 µM
IC50 (JeKo-1 BTK C481S cells; read-out: IC50, JeKo-1 BTK C481S): 1 µM
IC50 (JeKo-1 BTK C481S cells; read-out: IC50, anti-proliferative activity, JeKo-1 BTK C481S): 1.02 µM
IC50 (JeKo-1 cells [6]): 0.058 µM
inactivation of BTK/PI3K signaling versus Ibrutinib 1 μM and SRX3262 5 μM ([8]; 0.5 μM, Mino cells): to the same extent
activation of BTK (Tyr223) and AKT (Ser473) ([8]; IgM stimulated JeKo-1 and Mino cells): blocked activation of both BTK and AKT
IC50 (Mino cells [9]): 0.001 µM
cell population in G2 phase (Mino cells [10]): 19%
IC50 ([11]; read-out: IC50, BTK C481S): 25.1 µM
IC50 [11, 14]: 25 µM
toxicity to healthy donor PBMCs [12]: minimally toxic
mode of inhibition [13]: irreversible inhibitor
AKT phosphorylation after inhibitor wash out [13, 15]: retained inhibition of AKT phosphorylation
BTK phosphorylation after inhibitor wash out [13, 15]: retained inhibition of BTK phosphorylation

Like-named read-outs stand apart in the source and are kept apart here. The structures given here were assigned with low confidence; some may be wrong.
